Results published in patent EP2789631A1, “Compounds and methods for inhibition of binding of ICAM-4 to platelet integrin alphaIIbbeta3” (Synapse B.V., priority 2013, dated 2014).
Part of at least one peptide drawing is inferred or uncertain, most often the ends. Square brackets hold non-standard residues; d marks the D form. Ends that are not written are not given here. Peptide text beside a SMILES is read from it.

Key:
Format in all cases: cell-based, human
[1] = system: erythrocyte-platelet adhesion; assay: In vitro perfusion: erythrocyte binding to activated platelets under venous flow on VWF coated surface
[2] = system: P-selectin expression on platelets; assay: P-selectin expression assay on platelets by flow cytometry
[3] = system: fibrin network formation; assay: Flow-based perfusion with labelled fibrinogen and platelets plus SEM analysis: fibrin network formation; details: versus control; for bound platelets and fibrin network (in words): VWF-coated surface, CRP, fluorescently labelled fibrinogen

Compound | inhibitory effect on erythrocyte binding to platelets ([1]; CRP stimulated samples (500 ng/ml), dRGDW 100 µM, VWF, 100 s^-1) | decrease in erythrocyte binding to platelets ([1]; thrombin stimulated samples (1 U/ml), dRGDW 100 µM, VWF, 100 s^-1) | dose dependence of inhibitory effect on erythrocyte binding to platelets ([1]; CRP 500 ng/ml, Figures 3B and 3C) | inhibitory effect on erythrocyte-platelet adhesion (in words) ([1]; CRP 500 ng/ml, VWF surface, 100 s^-1, ICAM-4 peptide 10 µg/ml, anti-CD41 10 µg/ml, anti-CD61 6.25 µg/ml, anti-ICAM-4 10 µg/ml) | P-selectin expression / platelet reactivity (in words) ([2]; platelets treated with serial concentrations of ADP) | increased P-selectin expression on platelets ([2]; upon ADP stimulation, ICAM-4 peptide 10 µg/ml, diluted whole blood, versus blank control, p<0.01, n=5) | erythrocytes binding to the cover glass by SEM (in words) ([3]; SEM analysis) | fibrin network density and fibre thickness by SEM (in words) ([3]; SEM analysis) | bound platelets and fibrin network (in words) [3] | bound platelets and fibrin network (in words) ([3]; listed as ICAM-4 mimetic peptide)
N=C(N)NCCC[C@@H](N)C(=O)NCC(=O)N[C@@H](CC(=O)O)C(=O)N[C@@H](Cc1c[nH]c2ccccc12)C(=O)O [RGD peptide, D-Arginyl-Glycyl-L-Aspartyl-L-Tryptophan, reference compound] (H-[dR]GDW-OH) | 29% | 72% |  |  |  |  |  |  |  | 
GLDLANVTLTYEFAAGPRD [ICAM-4 peptide] |  |  | dose dependent inhibitory effect | significant inhibitory effect | higher P-selectin expression | 60% | lower amounts of erythrocytes binding to the cover glass | less dense network with thicker fibres | lower amounts of bound platelets and a less dense fibrin network concentrated around the bound platelets | profound inhibitory effect
